In PMC2228184 (British Journal of Cancer, 1997):

Test system: patients with advanced solid tumours
Settings: % decrease in ANC vs AUC, course 1, Figure 2
Excerpt: Topoisomerases are essential nuclear enzymes that alter the topology of DNA during DNA metabolism by cleavage of DNA strands, strand passage and religation (Wang, 1985). Two major topoisomerases, types I and H, have been identified in all mammalian cells, and induce single- and double-strand breaks respectively. […] They have different sites of binding DNA and play a different role in the cell cycle. Received 15 November 1996 Revised 19 February 1997 Accepted 10April 1997 Correspondence to: VMM Herben, Slotervaart Hospital, Department of Pharmacy and Pharmacology, Louwesweg 6, 1066 EC Amsterdam, The Netherlands Topotecan (Hycamtin), a semisynthetic water-soluble derivative of camptothecin, was the first topoisomerase I-targeting drug to undergo clinical testing since the discontinuation of the clinical development of sodium camptothecin in the early 1970s. […] In view of topotecan's unique mechanism of action and important anti-tumour effects as single agent, recent studies have focused on combination therapies with other effective anti- cancer agents. The combination of topoisomerase I inhibitors with topoiso- merase II poisons is in theory an attractive strategy. […]

Compound: CC[C@@]1(O)C(=O)OCc2c1cc1n(c2=O)Cc2cc3c(CN(C)C)c(O)ccc3nc2-1 [topotecan]
- Hill coefficient γ: 2.1
